{
  "source": "paper PMC6921068",
  "binders": {"B1": {"name": "carbonic anhydrase I (enzyme, UniProt B0BNN3 1-261)", "chain": "MASADWGYDSKNGPDQWSKLYPIANGNNQSPIDIKTSEAKHDSSLKPVSVSYNPATAKEIVNVGHSFHVVFDDSSNQSVLKGGPLADSYRLTQFHFHWGNSNDHGSEHTVDGAKYSGELHLVHWNSAKYSSAAEAISKADGLAIIGVLMKVGPANPNLQKVLDALSSVKTKGKRAPFTNFDPSSLLPSSLDYWTYFGSLTHPPLHESVTWVICKESISLSPEQLAQLRGLLSSAEGEPAVPVLSNHRPPQPLKGRTVRASF"}},
  "biological_target": "GST-fusion protein containing the NHE-1 C-terminal peptide (83 aa)",
  "assay": "far-Western, overlay or dot blot; GST-NHE-1 CP separated on 12% polyacrylamide gel and blotted onto nitrocellulose; blocked with 5% milk in PBS; incubated with 45 µg of rat colon tissue lysates for 4 h; detected with CA-selective antibodies; only the target purified",
  "note": "No constants are given. Whether binding was seen depends on the method and setting.",
  "data": [
    {"binder": "B1", "values": [
      {"measurement": "binding", "result": "no binding"}
    ]}
  ]
}
